# In the supplement of paper PMC10338343:
# ± gives the standard deviation. The entries are a selection whose mix differs from that of the whole data set. Many of these values have a large error. The list shows a part of the results.
# How the values were obtained:
# [1] = tested on: MILI (PIWIL2) piRISC loaded with L1MC piRNA (26 nt); assay: pre-steady-state target cleavage rate (min^-1); higher = faster piRNA-guided slicing of the target; conditions: guide: L1MC piRNA 5'p-UAACUAAAUACUAUGCAAGCUGUAGG;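 also: 1 nM active piRISC with 0.1 nM target library at 33 °C single turnover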
# Method in brief: (§1)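 The pre-steady-state cleavage rate was derived from a burst-and-steady-state fit of Cleave-'n-Seq data. For these assays, 1 nM active affinity-purified piRISC loaded with a single synthetic guide was mixed with […] a transcribed, DNA-blocked target RNA library in HEPES–potassium acetate buffer at 33 °C, with or without 500 nM GTSF1 partner protein, for 0–8 or 0–960 min. Sequencing counts of uncleaved targets were normalised to depth and to weakly complementary targets, and k3 was capped at 0.0001 min^-1 after three trials were pooled.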
# [2] = tested on: EfPiwi piRISC loaded with L1MC piRNA (26 nt); assay: pre-steady-state target cleavage rate (min^-1); guide: L1MC piRNA 5'p-UAACUAAAUACUAUGCAAGCUGUAGG; MIWI and MILI are mouse PIWI proteins and EfPiwi is from a freshwater sponge; tags in brackets are library labels; higher = faster piRNA-guided slicing of the target
# Method in brief: as §1
# [3] = auxiliary factor: none (no GTSF1)
# [4] = auxiliary factor: 500 nM Ephydatia muelleri Gtsf1
# [5] = auxiliary factor: none (no Gtsf1)
# [6] = auxiliary factor: 500 nM mouse GTSF1
Sequence,"pre-steady-state target cleavage rate [1, 3]","pre-steady-state target cleavage rate [2, 4]","pre-steady-state target cleavage rate [2, 5]","pre-steady-state target cleavage rate [1, 6]"
UCCUCGUACAGCUUGCAUAGAAUUUAGUUA,0.00192 ± 0.0025,0.00771 ± 0.0018,0.00853 ± 0.0037,–
UCCUGGAACAGCUUGCAUUGUAUUUAGAUA,0.00241 ± 0.0029,0.00313 ± 0.0017,0.000283 ± 0.029,–
UCCUGGAUGUGCUUGCAUAGUAUGUAGUUA,0.00322 ± 0.0035,0.00399 ± 0.0022,0.00121 ± 0.0079,–
UCCUGCGACAGCUUGCAUAGUAUUUAGUUA,–,0.0339 ± 0.0075,0.00118 ± 0.0069,0.298 ± 0.016
UCCUGGAUGUCGAUGCAUAGUAUUAAGAUA,0.00035 ± 0.013,0.000836 ± 0.0095,0.000329 ± 0.019,–
UCCUGGAACAGCUUGCAUAGUAUAUAGUAA,0.003 ± 0.0032,0.00251 ± 0.0017,0.000705 ± 0.012,–
UCCUGCUACAGCUUGCAUAGUAUUUUCUUA,0.00144 ± 0.0058,0.00359 ± 0.002,0.000791 ± 0.011,–
UCCUCCUACAGCUUGCAAAGUAUUUAGAAA,0.00105 ± 0.0044,0.00344 ± 0.0017,0.000627 ± 0.012,–
UCCUGGAACAGCUUGCAUAGUAUUUUGAAA,0.0019 ± 0.0033,0.00294 ± 0.0022,0.000525 ± 0.012,–
UCCUCCAUCAGCUUGCAUAGUAUUUAGAAA,0.00126 ± 0.0049,0.00539 ± 0.0026,0.000509 ± 0.012,–
UCCUCCUACAGCUUGGAUACUAUUUAGUUA,0.0021 ± 0.0025,0.0118 ± 0.0031,0.00497 ± 0.0037,–
UCCUGCUACAGAUUGCAUAGUAUUUAGUUA,–,0.0138 ± 0.0034,0.000842 ± 0.009,0.299 ± 0.015
UCCUGGUACAGGUUGCAUAGUAUAUAGUUA,–,0.00251 ± 0.0033,0.000882 ± 0.01,0.42 ± 0.089
UCCUGGAUGUGCUUGCAUAGUAUUUAGUGA,0.00336 ± 0.0035,0.00187 ± 0.0035,0.000547 ± 0.016,–
UCCUGGAACAGCUAUGCAUAGUAUUUAGUUA,0.0036 ± 0.0037,0.0102 ± 0.0029,0.00046 ± 0.018,–
UCCUGGUACAGCUUGCAUAGUUUUUAGAAA,0.00283 ± 0.0033,0.00142 ± 0.006,0.000571 ± 0.022,–
UCCUGGAUGAGCUUGCAUACUAAUUAGUUA,0.00154 ± 0.0043,0.00252 ± 0.0026,0.000309 ± 0.022,–
UCCUGGAUGUGCUUGCAUAGAAUUUAGUAA,0.000958 ± 0.0066,0.00215 ± 0.0051,0.000253 ± 0.034,–
UCCUGGUACAGCUUGCAAAGUAUUUAGAUA,0.00228 ± 0.0031,0.00431 ± 0.0026,0.000651 ± 0.011,–
UCCUGGAUCAGCUUGCAUAGGAUUUAGUUA,0.00157 ± 0.0037,0.0025 ± 0.0024,0.000538 ± 0.013,–
UCCUGGAUCACCUUGCAUAGUAUUUACAAA,0.00242 ± 0.0033,0.000341 ± 0.017,0.000109 ± 0.063,–
UCCUGGAUGUCGAACCAUCAGUAUUUAGUUA,< 0.0001,0.000371 ± 0.018,0.000227 ± 0.026,–
UCCUGGAUGUGCUUGCAUAGUAUAAUGUUA,0.00136 ± 0.0057,0.000537 ± 0.0088,0.000343 ± 0.023,–
UCCUGGAUGUGCUUGCAUAGUAUUUUGUAA,0.000851 ± 0.0087,0.000824 ± 0.0056,0.000331 ± 0.019,–
UCCUCCUACACCUUGCAUAGUUUUUAGUUA,0.00249 ± 0.0031,0.00443 ± 0.002,0.000468 ± 0.013,–
UCCUGGAACAGCUUGCAUAGUUUUAAGUUA,0.00203 ± 0.0036,0.00153 ± 0.0027,0.00123 ± 0.01,–

Sequence,"pre-steady-state target cleavage rate [1, 3]","pre-steady-state target cleavage rate [2, 4]","pre-steady-state target cleavage rate [2, 5]","pre-steady-state target cleavage rate [1, 6]"
UCCUCCUACAGCUUGCAUACUAAUUAGUUA,0.00185 ± 0.0032,0.00358 ± 0.0017,0.000959 ± 0.0057,–
UCCUGGUACAGCUAGCAUAGUAUUUACUUA,0.00162 ± 0.0042,0.00108 ± 0.0036,0.000362 ± 0.02,–
UCCUGGAUGUGCUUGCUUAGAAUUUAGUUA,0.00226 ± 0.0032,0.000414 ± 0.0092,0.000129 ± 0.075,–
UCCUGGAUGAGCUUGCAAUGUAUUUACAAA,0.000914 ± 0.0095,0.000282 ± 0.015,0.000632 ± 0.014,–
UCCUCCUACAGCUUGCAUAGUUUUAAGUUA,0.00163 ± 0.004,0.00431 ± 0.0024,0.000916 ± 0.0069,–
UCCUGCUACAGCUUGCUUAGUAUUUAGAUA,0.00112 ± 0.0051,0.00495 ± 0.0028,0.000297 ± 0.023,–
UCCUGGAUCAGCUUGCAUACUAUUUUGUUA,0.000785 ± 0.0089,0.00138 ± 0.0037,0.000238 ± 0.036,–
UCCUGCUACUGCUUGCAUAGUAUUUACAAA,0.00101 ± 0.0061,0.00262 ± 0.0024,0.000317 ± 0.016,–
UCCUGGAUGAGCUUGCAUAGUAAAUAGUUA,0.00227 ± 0.0033,0.00329 ± 0.0025,0.00114 ± 0.0096,–
UCCUGGAACAGCUUGCAUAGUAUUUAGAUA,0.00197 ± 0.0031,0.00437 ± 0.0016,0.00153 ± 0.007,–
UCCUGGAACAGCUUGGAUACUAUUUAGUUA,0.00232 ± 0.0025,0.00145 ± 0.0043,0.000228 ± 0.04,–
UCCUGGAUGAGCUUGCAUAGUAUUUAGGUA,0.0021 ± 0.0051,0.00204 ± 0.0025,0.000767 ± 0.015,–
UCCUGGAUCAGCUUGCAUAGUAUUUCAGUUA,0.00235 ± 0.0036,0.00187 ± 0.0024,0.000234 ± 0.027,–
UCCUGCUACACCUUGCAUAGUAUUAAGUUA,0.00279 ± 0.0035,0.00618 ± 0.0036,0.000761 ± 0.0084,–
UCCUGCUACAGCUUGCAUACUAUUUAGAUA,0.00128 ± 0.0045,0.00382 ± 0.002,0.000362 ± 0.015,–
UCCUGGUACAGCUUGCAUAGAAUAUAGUUA,0.00103 ± 0.0058,0.00126 ± 0.0035,0.000803 ± 0.012,–
UCCUGGAUGAGCUUGCAUAGUAAAUACAAA,0.000652 ± 0.0095,0.00115 ± 0.0039,0.000267 ± 0.034,–
UCCUGGAACAGCUUGCAUUGUAUUAAGUUA,0.00186 ± 0.0032,0.00239 ± 0.0026,0.000838 ± 0.011,–
UCCUGGUACUGCUUGCAUAGUAUUUAGAAA,0.00126 ± 0.0046,0.00409 ± 0.0019,0.000547 ± 0.013,–
UCCUGGAUGAGCUUGCAUAGUAUUAAGUAA,0.00166 ± 0.0054,0.00133 ± 0.0035,0.000451 ± 0.017,–
UCCUGGAUGUCGAAGCAUACUAAUUAGUUA,0.000254 ± 0.019,0.000539 ± 0.0082,< 0.0001,–
UCCUGGAACAGCUUGCAUAGUAUUUACUAA,0.00165 ± 0.0039,0.00102 ± 0.0043,0.00021 ± 0.04,–
UCCUGGUACUGCUUGCAUAGUAUAUAGUUA,0.00197 ± 0.0042,0.01 ± 0.0048,0.000257 ± 0.053,–
UCCUGGAACAGCUUGCAUAGUAUAAUGUUA,0.00144 ± 0.0063,0.00416 ± 0.0026,0.000781 ± 0.011,–
UCCUGGAUCAGCUUGCAUAGUAUAAUCAAA,0.000833 ± 0.0063,0.00378 ± 0.0043,0.000466 ± 0.015,–

# Copied from the list:
# pre-steady-state target cleavage rate [2, 5], UCCUGGAUGUCGAUGCAUAGUAUUAAGAUA reads 0.000329 ± 0.019
# pre-steady-state target cleavage rate [1, 3], UCCUGGAUGAGCUUGCAUAGUAAAUACAAA reads 0.000652 ± 0.0095
# pre-steady-state target cleavage rate [2, 4], UCCUGGAUGUGCUUGCUUAGAAUUUAGUUA reads 0.000414 ± 0.0092
